The target in assay [1] is AKT1 with C-terminal Strep and HA tags (UniProt P31749). The assay can be described thus: affinity purification with mass spectrometry; AKT1 with C-terminal Strep and HA tags over-expressed in HEK293 cells, purified by the HA tag and by the Strep tag; SILAC labelling, cells treated or not with the AKT inhibitor MK-2206; LC-MS/MS; eGFP swapped for AKT1 as control.
The target is the same in assay [2]. Described as above. The source holds these as a separate data set.

Chains of the proteins cited; added tags and fusions are not shown.
UniProt P31749: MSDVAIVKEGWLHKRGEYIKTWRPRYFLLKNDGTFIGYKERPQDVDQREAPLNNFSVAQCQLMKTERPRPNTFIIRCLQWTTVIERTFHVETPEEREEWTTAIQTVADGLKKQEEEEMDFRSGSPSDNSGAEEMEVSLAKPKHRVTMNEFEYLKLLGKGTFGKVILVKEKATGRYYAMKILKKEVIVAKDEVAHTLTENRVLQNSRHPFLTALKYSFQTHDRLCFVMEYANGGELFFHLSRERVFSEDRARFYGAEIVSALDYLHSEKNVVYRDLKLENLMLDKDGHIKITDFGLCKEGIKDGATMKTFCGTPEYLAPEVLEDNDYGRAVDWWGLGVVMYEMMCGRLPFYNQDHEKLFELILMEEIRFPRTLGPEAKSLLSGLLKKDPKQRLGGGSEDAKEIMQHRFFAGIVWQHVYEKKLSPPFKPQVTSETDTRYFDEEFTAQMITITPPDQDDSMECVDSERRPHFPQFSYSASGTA
UniProt Q9BWD1: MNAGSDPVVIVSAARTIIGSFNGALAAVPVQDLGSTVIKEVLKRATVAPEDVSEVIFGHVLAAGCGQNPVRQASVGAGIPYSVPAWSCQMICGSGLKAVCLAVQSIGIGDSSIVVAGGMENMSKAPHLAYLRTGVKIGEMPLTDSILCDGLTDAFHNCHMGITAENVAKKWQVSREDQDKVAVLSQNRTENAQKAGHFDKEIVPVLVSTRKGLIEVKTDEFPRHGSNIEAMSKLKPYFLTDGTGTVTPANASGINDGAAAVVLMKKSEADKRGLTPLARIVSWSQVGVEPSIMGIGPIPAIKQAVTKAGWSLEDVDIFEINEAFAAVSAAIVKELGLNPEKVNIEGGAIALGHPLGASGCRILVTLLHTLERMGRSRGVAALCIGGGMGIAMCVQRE
UniProt O43684: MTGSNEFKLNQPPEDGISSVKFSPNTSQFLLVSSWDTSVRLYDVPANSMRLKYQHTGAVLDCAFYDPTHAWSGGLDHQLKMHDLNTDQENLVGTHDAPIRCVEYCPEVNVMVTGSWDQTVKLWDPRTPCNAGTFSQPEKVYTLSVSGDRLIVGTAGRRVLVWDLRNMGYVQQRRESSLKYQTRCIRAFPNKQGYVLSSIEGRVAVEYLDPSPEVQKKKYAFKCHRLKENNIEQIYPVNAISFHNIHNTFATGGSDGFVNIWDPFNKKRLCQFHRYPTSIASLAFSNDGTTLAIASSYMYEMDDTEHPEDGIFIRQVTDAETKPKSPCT
UniProt P62993: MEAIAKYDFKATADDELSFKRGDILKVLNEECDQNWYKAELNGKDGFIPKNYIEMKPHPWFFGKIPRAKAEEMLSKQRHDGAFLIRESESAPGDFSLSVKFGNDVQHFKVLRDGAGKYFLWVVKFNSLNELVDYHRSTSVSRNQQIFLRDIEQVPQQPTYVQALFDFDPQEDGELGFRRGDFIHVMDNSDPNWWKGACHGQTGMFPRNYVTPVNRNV
UniProt P53396: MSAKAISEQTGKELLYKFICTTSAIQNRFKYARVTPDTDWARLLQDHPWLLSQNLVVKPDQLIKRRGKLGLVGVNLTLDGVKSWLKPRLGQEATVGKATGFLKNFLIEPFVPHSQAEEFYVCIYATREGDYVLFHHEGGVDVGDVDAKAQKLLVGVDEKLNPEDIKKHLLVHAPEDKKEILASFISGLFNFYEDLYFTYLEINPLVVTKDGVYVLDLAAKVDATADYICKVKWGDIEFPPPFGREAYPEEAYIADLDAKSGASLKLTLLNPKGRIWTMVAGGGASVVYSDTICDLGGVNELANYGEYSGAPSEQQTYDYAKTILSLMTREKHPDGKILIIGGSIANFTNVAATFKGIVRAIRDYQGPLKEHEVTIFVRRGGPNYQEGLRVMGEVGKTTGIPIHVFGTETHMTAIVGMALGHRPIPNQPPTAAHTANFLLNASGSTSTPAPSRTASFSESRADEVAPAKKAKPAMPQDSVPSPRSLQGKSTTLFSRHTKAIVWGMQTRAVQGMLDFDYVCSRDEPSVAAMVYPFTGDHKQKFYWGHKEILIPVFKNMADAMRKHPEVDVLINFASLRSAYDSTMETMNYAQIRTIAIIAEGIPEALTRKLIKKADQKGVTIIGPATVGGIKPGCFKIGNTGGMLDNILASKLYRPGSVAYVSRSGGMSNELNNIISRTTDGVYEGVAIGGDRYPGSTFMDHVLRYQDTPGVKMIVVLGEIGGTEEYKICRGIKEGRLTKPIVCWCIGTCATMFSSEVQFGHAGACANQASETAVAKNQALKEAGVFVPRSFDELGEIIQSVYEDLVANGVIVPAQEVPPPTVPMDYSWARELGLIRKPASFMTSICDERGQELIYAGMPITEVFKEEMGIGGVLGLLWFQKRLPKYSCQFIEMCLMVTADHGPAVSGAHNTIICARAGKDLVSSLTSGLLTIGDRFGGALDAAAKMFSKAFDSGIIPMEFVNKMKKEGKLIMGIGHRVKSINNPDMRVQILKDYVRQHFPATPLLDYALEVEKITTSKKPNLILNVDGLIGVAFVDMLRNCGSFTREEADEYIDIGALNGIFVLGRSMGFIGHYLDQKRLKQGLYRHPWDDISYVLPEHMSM

Like-named read-outs stand apart in the source and are kept apart here. These are yes or no findings as the source states them, for the method shown. Binding seen in cells or lysates may run through a third protein. These calls come from enrichment with a bait or labelling near it, and not all partners need be listed.

In the case of “ACAT2 (from UniProt Q9BWD1 1-397) (enzyme)”, in assay [1], the binding result is recorded as “binds”.
On the same count and under the same terms, the result for BUB3 (from UniProt O43684 1-328) reads “binds”; that for GRB2 (from UniProt P62993 1-217), “binds”; that for “citrate lyase (from UniProt P53396 1-1101) (enzyme)”, “binds”.

B1: PDHB (enzyme, UniProt P11177 31-359)
chain: LQVTVRDAINQGMDEELERDEKVFLLGEEVAQYDGAYKVSRGLWKKYGDKRIIDTPISEMGFAGIAVGAAMAGLRPICEFMTFNFSMQAIDQVINSAAKTYYMSGGLQPVPIVFRGPNGASAGVAAQHSQCFAAWYGHCPGLKVVSPWNSEDAKGLIKSAIRDNNPVVVLENELMYGVPFEFPPEAQSKDFLIPIGKAKIERQGTHITVVSHSRPVGHCLEAAAVLSKEGVECEVINMRTIRPMDMETIEASVMKTNHLVTVEGGWPQFGVGAEICARIMEGPAFNFLDAPAVRVTGADVPMPYAKILEDNSIPQVKDIIFAIKKTLNI
Regarding B1, the binding entry in assay [2] is “binds”.

The values are drawn from paper PMC5932847.
